Structures are written as SMILES. The list is a part of this screen's results and no random one: it gathers tests that were run many times, whatever their T/C, doses with no T/C, and many T/C values between a quarter and a half above the control. Other doses and runs of a compound stand elsewhere. T/C is the treated group as % of the vehicle group. Some doses have a count of surviving animals in place of a T/C: the source holds a T/C of zero for them, seemingly a mark for toxic or unscored doses. Some doses without a T/C left all or most animals alive at the check, yet need not have been tolerated: the source hardly ever lists a survival T/C far under the control, and the zero likely stands for such cases as well. Counts of survivors are from the toxicity check (mostly the fifth day) where no day follows; animals may have died later. Schedule codes are those of the source, taken here to give the interval after Q, in days (D) or hours (H), and the number of doses after X. Some entries hold several experiments; their values stand side by side, smallest first. For survival time, the PubChem record calls one and a half times the control and up active, and a quarter to a half above the control has no call in these data; cut-offs in other NCI protocols can differ. Some T/C values are followed by the survivors on the day toxicity was checked, most often the fifth; without a count, all were alive then. Marks such as (2×) give the number of equal values in this list.

The subject of this experiment is C57BL/6 mice, intracerebral ependymoblastoma, median survival T/C. As to the kind of experiment: NCI In Vivo Anticancer Drug Screen. Data for tumor model Ependymoblastoma (intracerebral) in C57BL/6 mice. The conditions noted are these: T/C endpoint: median survival time, higher T/C = longer survival. On the procedure:
The antitumor activity of compounds was measured in mice bearing transplantable tumors. Survival or tumor size were measured and the results are expressed as the measurement made in the treated group (T) divided by the measurement made in the vehicle treated control group (C). The tumor model used in this assay is Ependymoblastoma (intracerebral) in C57BL/6 mice

Setting [1] is: dose: 32.0 mg/kg/injection, schedule: Q01DX005 (ip), vehicle: saline.
[2] abbreviates: dose: 64.0 mg/kg/injection, schedule: Q01DX005 (ip), vehicle: Klucel (hydroxypropylcellulose) (HPC).
Setting [3] is: dose: 64.0 mg/kg/injection, schedule: Q01DX005 (ip), vehicle: saline with Tween-80.
[4] abbreviates: dose: 128.0 mg/kg/injection, schedule: Q01DX005 (ip), vehicle: Klucel (hydroxypropylcellulose) (HPC).
[5] abbreviates: dose: 32.0 mg/kg/injection, schedule: Q01DX005 (ip), vehicle: Klucel (hydroxypropylcellulose) (HPC).
The mark [6] stands for this setting: dose: 640.0 mg/kg/injection, schedule: Q01DX005 (ip), vehicle: saline.
[7] abbreviates: dose: 1280.0 mg/kg/injection, schedule: Q01DX005 (ip), vehicle: saline.
Setting [8] is: dose: 16.0 mg/kg/injection, schedule: Q01DX001 (ip), vehicle: Klucel (hydroxypropylcellulose) (HPC).
The mark [9] stands for this setting: dose: 16.0 mg/kg/injection, schedule: Q01DX005 (ip), vehicle: Klucel (hydroxypropylcellulose) (HPC).
[10] abbreviates: dose: 25.0 mg/kg/injection, schedule: Q01DX001 (ip), vehicle: water.

As to `CN(CO)c1nc(N(C)CO)nc(N(C)CO)n1`, the survivor count is listed as 5 of 10 (dose: 50.0 mg/kg/injection, schedule: Q01DX005 (ip), vehicle: saline with Tween-80); 5 of 10 (dose: 100.0 mg/kg/injection, schedule: Q01DX005 (ip), vehicle: saline with Tween-80); 6 of 10 (dose: 200.0 mg/kg/injection, schedule: Q01DX005 (ip), vehicle: saline with Tween-80); 3 of 10 (dose: 400.0 mg/kg/injection, schedule: Q01DX005 (ip), vehicle: saline with Tween-80); 0 of 10 (dose: 800.0 mg/kg/injection, schedule: Q01DX005 (ip), vehicle: saline with Tween-80).
Take `O=C(NP(=O)(N1CC1)N1CC1)c1cc(I)ccc1I`: the survivor count runs as follows: (dose: 32.0 mg/kg/injection, schedule: Q01DX005 (ip), vehicle: saline with Tween-80) 9 of 10; under setting [2], 10 of 10; under setting [3], 10 of 10; under setting [4], 9 of 10; (dose: 128.0 mg/kg/injection, schedule: Q01DX005 (ip), vehicle: saline with Tween-80) 9 of 10; (dose: 128.0 mg/kg/injection, schedule: Q01DX005 (ip), vehicle: saline) 10 of 10. Also, the T/C under setting [1] was 132 % of control.
Regarding `COC1C(O)C(C)OC(OC2C(Oc3cccc4c(O)c5c(=O)oc6ccc(C)c7c(=O)oc(c34)c5c67)OC(C)C(O)C2O)C1O` (stereo unspecified), the T/C (dose: 4.0 mg/kg/injection, schedule: Q01DX005 (ip), vehicle: Klucel (hydroxypropylcellulose) (HPC)) was 136 % of control; the T/C under setting [5] is 126 % of control [9 of 10 alive]; the T/C under setting [4] is 134 % of control [8 of 10 alive]. Further, the survivor count under setting [4] is 1 of 10 and 4 of 10; the survivor count (dose: 256.0 mg/kg/injection, schedule: Q01DX005 (ip), vehicle: Klucel (hydroxypropylcellulose) (HPC)) is 0 of 10 and 1 of 10.
As to `O=c1ccc2ccccc2o1`, the survivor count by setting is: (dose: 360.0 mg/kg/injection, schedule: Q01DX005 (ip), vehicle: saline with Tween-80) 6 of 10; (dose: 1440.0 mg/kg/injection, schedule: Q01DX005 (ip), vehicle: saline with Tween-80) 5 of 10.
As to `OC(CCl)CN1CC[N+]2(CC1)CC[N+]1(CCN(CC(O)CCl)CC1)CC2` (stereo unspecified), the T/C by setting is: (dose: 80.0 mg/kg/injection, schedule: Q01DX005 (ip), vehicle: saline) 100, 101 (2×), 116 % of control; (dose: 160.0 mg/kg/injection, schedule: Q01DX005 (ip), vehicle: saline) 97, 105, 114, 119 % of control; (dose: 320.0 mg/kg/injection, schedule: Q01DX005 (ip), vehicle: saline) 90, 100, 118 [9 of 10 alive], 139 % of control; under setting [6], 105 % of control; under setting [7], 135 % of control. For the same compound, the survivor count runs as follows: under setting [6], 0 of 10, 4 of 10, 9 of 10; under setting [7], 1 of 10.
As to `O=C(O)CCCc1ccc(N(CCCl)CCCl)cc1`, the survivor count by setting is: (dose: 0.5 mg/kg/injection, schedule: Q01DX005 (ip), vehicle: Klucel (hydroxypropylcellulose) (HPC)) 5 of 6; under setting [8], 8 of 10; under setting [9], 9 of 10; (dose: 32.0 mg/kg/injection, schedule: Q01DX001 (ip), vehicle: Klucel (hydroxypropylcellulose) (HPC)) 5 of 10; under setting [5], 4 of 10 and 8 of 10.
Consider `O=P1(NCCCl)OCCCN1CCCl` (stereo unspecified), for which the T/C runs as follows: under setting [10], 135 % of control; (dose: 50.0 mg/kg/injection, schedule: Q01DX001 (ip), vehicle: water) 129 % of control; (dose: 50.0 mg/kg/injection, schedule: Q01DX005 (ip), vehicle: saline) 127 % of control; (dose: 50.0 mg/kg/injection, schedule: Q01DX005 (ip), vehicle: water) 136 % of control; (dose: 100.0 mg/kg/injection, schedule: Q01DX001 (ip), vehicle: water) 135 % of control [9 of 10 alive]; (dose: 100.0 mg/kg/injection, schedule: Q01DX005 (ip), vehicle: saline) 141 % of control [7 of 8 alive]. Also, the T/C runs as follows: (dose: 200.0 mg/kg/injection, schedule: Q01DX001 (ip), vehicle: water) 146 % of control; (dose: 200.0 mg/kg/injection, schedule: Q01DX005 (ip), vehicle: saline) 146 % of control. Besides, the survivor count was 8 of 9 under setting [10]; 10 of 10 (dose: 200.0 mg/kg/injection, schedule: Q01DX005 (ip), vehicle: water); 8 of 10 and 9 of 10 (dose: 400.0 mg/kg/injection, schedule: Q01DX005 (ip), vehicle: water).
On to `CC(CN1CC(=O)NC(=O)C1)N1CC(=O)NC(=O)C1` (stereo unspecified), for which the survivor count reads like this: (dose: 8.0 mg/kg/injection, schedule: Q01DX001 (ip), vehicle: Klucel (hydroxypropylcellulose) (HPC)) 10 of 10; under setting [9], 7 of 10; under setting [5], 10 of 10; under setting [2], 8 of 10; under setting [4], 7 of 10 and 9 of 10. Also, the T/C under setting [8] is 125 % of control and the T/C (dose: 128.0 mg/kg/injection, schedule: Q01DX001 (ip), vehicle: Klucel (hydroxypropylcellulose) (HPC)) was 127 % of control.
For `O=c1ccn(C2OC(CO)C(O)C2O)c(=O)[nH]1` (stereo unspecified), the survivor count (dose: 1024.0 mg/kg/injection, schedule: Q01DX005 (ip), vehicle: saline) is recorded as 10 of 10.
As to `CCC1(O)CC2CN(CCc3c([nH]c4ccccc34)C(C(=O)OC)(c3cc4c(cc3OC)N(C)C3C(O)(C(=O)NCCO)C(O)C5(CC)C=CCN6CCC43C65)C2)C1` (stereo unspecified), the survivor count is given as 0 of 6 (dose: 1.6 mg/kg/injection, schedule: Q01DX005 (ip), vehicle: saline); 1 of 6 (dose: 3.2 mg/kg/injection, schedule: Q01DX005 (ip), vehicle: saline); 0 of 6 (dose: 6.4 mg/kg/injection, schedule: Q01DX005 (ip), vehicle: saline); 0 of 6 (dose: 12.8 mg/kg/injection, schedule: Q01DX005 (ip), vehicle: saline).
For `Nc1ncnc2nc[nH]c12`, the survivor count is, setting by setting: under setting [3], 8 of 10; (dose: 256.0 mg/kg/injection, schedule: Q01DX005 (ip), vehicle: saline with Tween-80) 8 of 10; (dose: 512.0 mg/kg/injection, schedule: Q01DX005 (ip), vehicle: saline with Tween-80) 5 of 10; (dose: 1024.0 mg/kg/injection, schedule: Q01DX005 (ip), vehicle: saline with Tween-80) 0 of 10.
`OCCN1CCN(CC/C=C2/c3ccccc3Sc3ccc(C(F)(F)F)cc32)CC1`: the survivor count (dose: 50.0 mg/kg/injection, schedule: Q04DX003 (ip), vehicle: saline) is on record as 8 of 10 and the survivor count (dose: 100.0 mg/kg/injection, schedule: Q04DX003 (ip), vehicle: saline) is reported as 3 of 10.
On to `O=c1cnn(C2OC(CO)C(O)C2O)c(=O)[nH]1` (stereo unspecified), for which the survivor count is listed as 1 of 6 (dose: 250.0 mg/kg/injection, schedule: Q01DX005 (ip), vehicle: saline) and 6 of 6 (dose: 2000.0 mg/kg/injection, schedule: Q01DX005 (ip), vehicle: saline).
Turning to `Cc1c2cc[n+](C)cc2c(C)c2c1[nH]c1ccc(O)cc12`, the survivor count runs as follows: (dose: 0.5 mg/kg/injection, schedule: Q01DX005 (ip), vehicle: saline) 10 of 10; (dose: 1.0 mg/kg/injection, schedule: Q01DX005 (ip), vehicle: saline) 10 of 10.
As to `CCN(CC)c1ccc2cc3ccc(=[N+](CC)CC)cc-3oc2c1`, the survivor count is 5 of 10 (dose: 16.0 mg/kg/injection, schedule: Q01DX005 (ip), vehicle: saline) and 0 of 10 under setting [1].

Source of the values: PubChem BioAssay AID222 (DTP/NCI, 2004).
